Library compounds against nucleic acid targets

Data from the ROBIN nucleic acid binder screens, doi:10.1002/anie.202211358.

Targets (5′ to 3′):
T1: PreQ1 riboswitch RNA pseudoknot, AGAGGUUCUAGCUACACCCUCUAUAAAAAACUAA. From B. subtilis. About 24,000 compounds screened, about 170 hits.
T2: TPP riboswitch RNA three-way junction, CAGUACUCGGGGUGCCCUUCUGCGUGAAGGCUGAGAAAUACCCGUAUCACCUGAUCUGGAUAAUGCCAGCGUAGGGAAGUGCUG. About 24,000 compounds screened, about 160 hits.
T3: SAM-II riboswitch RNA pseudoknot, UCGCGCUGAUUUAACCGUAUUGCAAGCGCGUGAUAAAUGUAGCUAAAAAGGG. About 21,000 compounds screened, about 200 hits.

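Each compound is printed as two spots on a slide made to bind it covalently, so it has no test concentration; the read-out is fluorescence of the bound, labelled oligonucleotide. For the PreQ1, TPP and SAM-II riboswitches the laboratory earlier reported (doi:10.1038/s41467-019-09493-3) 1 µM RNA, 2 h, and a rule that included a mean Z-score above 3 (spot signal-to-noise against the whole library), a score well above that on a control array, and duplicate spots agreeing (coefficient of variation under 100). The data file gives only the calls; its cut-offs may differ, and compounds hitting several targets are kept. The calls come from the array alone, and fixing a compound to the slide can hide its binding.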
A compound is marked yes if it was called a hit and no if it was screened but was not.
Compounds were drawn at random from those tested, without regard to their results.
A target missing from an entry has no call listed here.
A dash means that no call is listed here.

structure	T1	T2	T3
N#CC1=C(N)OC2=C(C(=O)CCC2)C1c1ccccc1 (stereo unspecified)	no	no	no
CCCC(CCC)N1CCN(c2cc(N)nc(N)n2)CC1	no	no	no
CC(C)(C)c1cc(C(c2ccccn2)N2CCN(CCO)CC2)cc(C(C)(C)C)c1O (stereo unspecified)	no	no	no
CCOC(=O)C1=C(c2ccccc2)OC(N)=C(C#N)C12C(=O)N(CC)c1ccccc12 (stereo unspecified)	no	no	no
Cn1cc(NC(=O)NCCCNc2cccnc2)cn1	no	no	no
CNC[C@H](O)[C@@H](O)[C@H](O)[C@H](O)CO	no	no	no
CN1C[C@H](NS(=O)(=O)c2cc(Cl)ccc2Cl)C[C@H]1CO	no	no	no
CCc1oc(C(=O)NCc2cc3n(n2)CCNC3)cc1CN1CCCC1	no	no	no
Cc1cccc(C)c1OC1CN(C(=O)c2cn(CC3CCCNC3)nn2)C1 (stereo unspecified)	no	no	no
CCc1ccc(C2C(C#N)=C(N)Oc3[nH]nc(COC)c32)cc1 (stereo unspecified)	no	no	no
Cc1cccc(C)c1OCCOCC(O)CN1CCN(c2ccccn2)CC1.Cl.Cl (stereo unspecified)	no	no	no
COCCCn1cnnc1C(C)N1CC2(CCNCC2)CCC1=O (stereo unspecified)	no	no	no
FC(F)(F)c1cccc(-c2nc3nc(Cl)c(Cl)nc3[nH]2)c1	no	no	no
COCCNc1cc(C)nc2c(C)c(-c3ccccc3)nn12	no	no	-
Cc1ccc(-c2nn3c(N4CCN(CCO)CC4)cc(C)nc3c2C)cc1	no	no	-
COc1ccc(NC2CCCN(c3cccc(C#N)n3)C2)cc1OC (stereo unspecified)	no	no	no
CC[C@H]1OC(=O)[C@H](C)[C@@H](O[C@H]2C[C@@](C)(OC)[C@@H](O)[C@H](C)O2)[C@H](C)[C@@H](O[C@@H]2O[C@H](C)C[C@H](N(C)C)[C@@H]2O)[C@](C)(O)C[C@@H](C)CN(C)[C@H](C)[C@@H](O)[C@]1(C)O	no	no	no
COc1ccc(CNCc2nnc(-c3ccccc3)o2)cc1	no	no	-
COc1ccc2c(c1)C(C(=O)NCc1cc3n(n1)CCCNC3)CC(=O)N2 (stereo unspecified)	no	no	no
Nc1nc(CCC(=O)N2CCCC2c2nc(-c3ccccc3)no2)n[nH]1 (stereo unspecified)	no	no	no
CC1(C)CC(=O)C2=C(C1)OC(N)=C(C#N)C2c1ccc(F)cc1F (stereo unspecified)	no	no	no
c1ccc(-n2c3ccccc3c3ccccc32)cc1	no	no	no
COc1cc(CC(=O)N2CCCC(N)CC2)cc(OC)c1OC (stereo unspecified)	no	no	no
Cc1cc(C)n2nc(NCc3ccc(Cl)cc3)nc2n1	no	no	-
CCN1C(=O)C2(C(C#N)=C(N)Oc3cc(C)oc(=O)c32)c2ccccc21 (stereo unspecified)	no	no	no
Cc1nc(NCc2n[nH]c(N)n2)c2c(C)noc2n1	no	no	no
N[C@@H](Cc1c[nH]cn1)C(=O)N1CCC2(CC1)CN(CCOc1ccccc1)C(=O)O2	no	no	no
CCc1ccc(-n2nnc(-c3nc(-c4ccc(OC)cc4)no3)c2N)cc1	no	no	-
COc1ccc(C2CC(C(F)(F)F)n3nc(C(=O)Nc4ccc(C(C)O)cc4)c(Cl)c3N2)cc1 (stereo unspecified)	no	no	no
COc1ccc(CNCc2ccc(C(=O)O)s2)cc1	no	no	-
Cn1cc(CNCC2CCN(c3ncc(C(=O)NO)cn3)CC2)c2ccccc21	no	no	no
O=C(CSCCO)Nc1nc(-c2ccccc2)cs1	no	no	no
O=C(c1cccc(-n2cccn2)c1)N1CCN[C@H]2CS(=O)(=O)C[C@H]21	no	no	no
Cc1ccccc1-n1cnc2cc(NCc3ccccn3)ccc21	no	no	no
NS(=O)(=O)c1ccc(NC2(C(=O)O)CCCC2)cc1	no	no	no
CCCCC[C@H](O)C=C[C@H]1[C@H](O)CC(=O)[C@H]1CCCCCCC(=O)O	no	no	no
Cc1ccc(NC(=O)[C@@H]2CNC[C@H](C(=O)NCc3ccon3)C2)cc1	no	no	no
Cc1cccnc1CN1CCN(C2CC(C)(C)NC(C)(C)C2)CC1	no	no	no
CCC(O)c1nc2ccccc2n1Cc1c(F)cccc1Cl (stereo unspecified)	no	no	-
Nc1c(C(=O)Nc2nccs2)sc2nc(-c3cccs3)cc(C(F)(F)F)c12	no	no	no
COC(=O)C1=C(C)OC(N)=C(C#N)C12C(=O)N(Cc1cccc(Br)c1)c1ccccc12 (stereo unspecified)	no	no	no
Cc1cc(C)n(CC(O)Cn2c(C)c(C)c3ccccc32)n1 (stereo unspecified)	no	no	no
CCCc1nc(C(=O)N[C@@H]2CN[C@H](C(=O)O)C2)cs1	no	no	no
O=C(Nc1cccc(-c2nc3ccccc3[nH]2)c1)c1ccc(C(=O)Nc2cccc(-c3nc4ccccc4[nH]3)c2)cc1	no	no	no
NC(=O)C1=C(N)c2ccccc2C1c1ccccc1 (stereo unspecified)	no	no	no
CCN(CC)C(=O)CSc1nc(-c2ccccc2Cl)nc2c1Cc1c(CO)cnc(C)c1O2	no	no	-
Cc1cc(C)c2c(=O)c3c(oc2c1)C(=O)N(CCO)C3c1ccccc1F (stereo unspecified)	no	no	-

Some entries from above, unchanged:

- Cc1cccnc1CN1CCN(C2CC(C)(C)NC(C)(C)C2)CC1 | T1: no; T2: no; T3: no
- CCc1oc(C(=O)NCc2cc3n(n2)CCNC3)cc1CN1CCCC1 | T1: no; T2: no; T3: no
- Cc1ccc(NC(=O)[C@@H]2CNC[C@H](C(=O)NCc3ccon3)C2)cc1 | T1: no; T2: no; T3: no
- CCOC(=O)C1=C(c2ccccc2)OC(N)=C(C#N)C12C(=O)N(CC)c1ccccc12 (stereo unspecified) | T1: no; T2: no; T3: no
- Cc1cccc(C)c1OCCOCC(O)CN1CCN(c2ccccn2)CC1.Cl.Cl (stereo unspecified) | T1: no; T2: no; T3: no
- O=C(Nc1cccc(-c2nc3ccccc3[nH]2)c1)c1ccc(C(=O)Nc2cccc(-c3nc4ccccc4[nH]3)c2)cc1 | T1: no; T2: no; T3: no